# These are yes or no findings as the source states them, for the method shown. In cells and extracts the contact can be indirect. Some results given as binding are weak or reduced against the parent protein; the word gives no strength.
# Chains of the proteins cited; added tags and fusions are not shown.
# UniProt Q99683: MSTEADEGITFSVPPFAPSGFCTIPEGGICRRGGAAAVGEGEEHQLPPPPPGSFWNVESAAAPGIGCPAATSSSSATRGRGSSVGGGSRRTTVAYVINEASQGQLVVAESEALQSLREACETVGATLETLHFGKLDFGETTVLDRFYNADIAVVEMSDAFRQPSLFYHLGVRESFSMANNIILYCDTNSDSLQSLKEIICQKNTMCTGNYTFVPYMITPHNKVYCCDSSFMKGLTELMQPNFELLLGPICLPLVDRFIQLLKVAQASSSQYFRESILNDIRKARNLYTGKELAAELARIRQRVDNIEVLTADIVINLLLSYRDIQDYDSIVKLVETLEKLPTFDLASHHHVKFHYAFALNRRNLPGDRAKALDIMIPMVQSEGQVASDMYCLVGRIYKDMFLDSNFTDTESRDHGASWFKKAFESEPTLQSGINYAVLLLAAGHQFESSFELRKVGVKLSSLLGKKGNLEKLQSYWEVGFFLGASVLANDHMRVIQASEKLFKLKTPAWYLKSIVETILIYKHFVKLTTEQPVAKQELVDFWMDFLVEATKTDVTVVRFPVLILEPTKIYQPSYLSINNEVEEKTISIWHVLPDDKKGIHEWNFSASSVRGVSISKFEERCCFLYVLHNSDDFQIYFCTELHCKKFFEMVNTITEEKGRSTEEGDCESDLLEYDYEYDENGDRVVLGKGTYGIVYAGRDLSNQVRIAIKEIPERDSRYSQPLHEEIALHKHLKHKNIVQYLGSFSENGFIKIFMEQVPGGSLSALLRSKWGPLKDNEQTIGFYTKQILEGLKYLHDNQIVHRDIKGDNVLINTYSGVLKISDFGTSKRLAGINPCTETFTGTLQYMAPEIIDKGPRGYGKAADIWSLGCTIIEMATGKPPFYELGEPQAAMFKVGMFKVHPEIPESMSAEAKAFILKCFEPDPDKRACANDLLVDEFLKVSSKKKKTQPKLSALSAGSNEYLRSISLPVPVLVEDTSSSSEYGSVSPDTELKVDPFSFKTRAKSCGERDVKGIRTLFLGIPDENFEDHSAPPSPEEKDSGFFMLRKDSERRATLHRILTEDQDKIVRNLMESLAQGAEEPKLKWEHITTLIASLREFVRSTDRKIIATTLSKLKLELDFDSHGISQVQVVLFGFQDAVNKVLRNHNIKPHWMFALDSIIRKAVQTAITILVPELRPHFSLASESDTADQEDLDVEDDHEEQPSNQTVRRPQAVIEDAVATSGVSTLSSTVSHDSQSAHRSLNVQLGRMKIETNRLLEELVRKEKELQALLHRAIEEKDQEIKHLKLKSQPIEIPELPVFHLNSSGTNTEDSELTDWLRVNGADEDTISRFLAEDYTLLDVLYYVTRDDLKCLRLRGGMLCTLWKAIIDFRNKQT
# B1: Glutathione S-transferase Mu 2 (enzyme, UniProt P28161-2 1-191)
# chain: MPMTLGYWNIRGLAHSIRLLLEYTDSSYEEKKYTMGDAPDYDRSQWLNEKFKLGLDFPNLPYLIDGTHKITQSNAILRYIARKHNLCGESEKEQIREDILENQFMDSRMQLAKLCYDPDFEKLKPEYLQALPEMLKLYSQFLGKQPWFLGDKITFVDFIAYDVLERNQVFEPSCLDAFPNLKDFISRFEHS
# Target: apoptosis signal-regulating kinase1 (UniProt Q99683)
# Test: co-IP; co-immunoprecipitation assay (Fig. 4f); cells, antibodies and direction of the precipitation not described
binder,measurement,value
B1,binding,binds
